Experimental data as given in US12382955B2, “Peroxyformic acid compositions for membrane filtration cleaning in energy services” (priority 2016, dated 2025).

Experiment: Membrane compatibility, simulated exposure soak, clean water flux and salt rejection (Example 4)
Conditions: Koch HRX, PFA 300 ppm, 77 F, 2000 ppm NaCl
Protocol: The effects of PFA on reverse osmosis members which contain a polyamide structure in comparison with known control chemicals were tested. Three different membranes were tested including Koch HRX, Hydranautics CPA5 and Hydranautics ESPA2+. Membranes were soaked in duplicate, in chemistries according to Table 4.
Membranes were then conditioned in Ultrasil 110 at a pH of 11 for 90 minutes at 50° C., followed by a rinse in DI water.
Each of the chemistries, with the exception of PFA was refreshed daily. PFA was refreshed hourly. After the simulated exposure the membranes are rinsed with DI water and placed on the Flat Sheet Membrane skid (Model M20). The membranes were rinsed with DI water for 24 hours at standard UF pressure and temperature. Once 24 hours was completed the membranes were subjected to alkaline conditioning step until solution pH is 11. 15.14 grams of NaCl was added to the recirculating water (2000 ppm NaCl) and the system was allowed to continue circulating. The conductivity of each permeate tube and feed was then measured and recorded and shown as percent rejection. The percent rejection was determined by (conductivity of the feed−conductivity of the permeate)/(conductivity of the feed).

O=COO [PFA, peroxyformic acid]
Salt Rejection (%) PFA 1 YR (simulated 1 year, 78 hr soak): 91.26%
Salt Rejection (%) PFA 3 YR (simulated 3 years, 234 hr soak): 87.50%
